Reference: article PMC11039529
Results are given in words; binding and its absence hold for the method and conditions named. Binding seen in cells or lysates may run through a third protein. Here binding means that the protein was enriched with, or labelled near, the bait; the list need not be complete.

Amino acid sequences for entries named in this document (tags omitted). A change or cut given only in a name is not applied to a line headed by its entry. Chains listed by the source or under a name are the forms on record and can include a tag or linker.
GFP-tagged Zip, over-expressed from UAS-GFP-zip (Q99323, form named): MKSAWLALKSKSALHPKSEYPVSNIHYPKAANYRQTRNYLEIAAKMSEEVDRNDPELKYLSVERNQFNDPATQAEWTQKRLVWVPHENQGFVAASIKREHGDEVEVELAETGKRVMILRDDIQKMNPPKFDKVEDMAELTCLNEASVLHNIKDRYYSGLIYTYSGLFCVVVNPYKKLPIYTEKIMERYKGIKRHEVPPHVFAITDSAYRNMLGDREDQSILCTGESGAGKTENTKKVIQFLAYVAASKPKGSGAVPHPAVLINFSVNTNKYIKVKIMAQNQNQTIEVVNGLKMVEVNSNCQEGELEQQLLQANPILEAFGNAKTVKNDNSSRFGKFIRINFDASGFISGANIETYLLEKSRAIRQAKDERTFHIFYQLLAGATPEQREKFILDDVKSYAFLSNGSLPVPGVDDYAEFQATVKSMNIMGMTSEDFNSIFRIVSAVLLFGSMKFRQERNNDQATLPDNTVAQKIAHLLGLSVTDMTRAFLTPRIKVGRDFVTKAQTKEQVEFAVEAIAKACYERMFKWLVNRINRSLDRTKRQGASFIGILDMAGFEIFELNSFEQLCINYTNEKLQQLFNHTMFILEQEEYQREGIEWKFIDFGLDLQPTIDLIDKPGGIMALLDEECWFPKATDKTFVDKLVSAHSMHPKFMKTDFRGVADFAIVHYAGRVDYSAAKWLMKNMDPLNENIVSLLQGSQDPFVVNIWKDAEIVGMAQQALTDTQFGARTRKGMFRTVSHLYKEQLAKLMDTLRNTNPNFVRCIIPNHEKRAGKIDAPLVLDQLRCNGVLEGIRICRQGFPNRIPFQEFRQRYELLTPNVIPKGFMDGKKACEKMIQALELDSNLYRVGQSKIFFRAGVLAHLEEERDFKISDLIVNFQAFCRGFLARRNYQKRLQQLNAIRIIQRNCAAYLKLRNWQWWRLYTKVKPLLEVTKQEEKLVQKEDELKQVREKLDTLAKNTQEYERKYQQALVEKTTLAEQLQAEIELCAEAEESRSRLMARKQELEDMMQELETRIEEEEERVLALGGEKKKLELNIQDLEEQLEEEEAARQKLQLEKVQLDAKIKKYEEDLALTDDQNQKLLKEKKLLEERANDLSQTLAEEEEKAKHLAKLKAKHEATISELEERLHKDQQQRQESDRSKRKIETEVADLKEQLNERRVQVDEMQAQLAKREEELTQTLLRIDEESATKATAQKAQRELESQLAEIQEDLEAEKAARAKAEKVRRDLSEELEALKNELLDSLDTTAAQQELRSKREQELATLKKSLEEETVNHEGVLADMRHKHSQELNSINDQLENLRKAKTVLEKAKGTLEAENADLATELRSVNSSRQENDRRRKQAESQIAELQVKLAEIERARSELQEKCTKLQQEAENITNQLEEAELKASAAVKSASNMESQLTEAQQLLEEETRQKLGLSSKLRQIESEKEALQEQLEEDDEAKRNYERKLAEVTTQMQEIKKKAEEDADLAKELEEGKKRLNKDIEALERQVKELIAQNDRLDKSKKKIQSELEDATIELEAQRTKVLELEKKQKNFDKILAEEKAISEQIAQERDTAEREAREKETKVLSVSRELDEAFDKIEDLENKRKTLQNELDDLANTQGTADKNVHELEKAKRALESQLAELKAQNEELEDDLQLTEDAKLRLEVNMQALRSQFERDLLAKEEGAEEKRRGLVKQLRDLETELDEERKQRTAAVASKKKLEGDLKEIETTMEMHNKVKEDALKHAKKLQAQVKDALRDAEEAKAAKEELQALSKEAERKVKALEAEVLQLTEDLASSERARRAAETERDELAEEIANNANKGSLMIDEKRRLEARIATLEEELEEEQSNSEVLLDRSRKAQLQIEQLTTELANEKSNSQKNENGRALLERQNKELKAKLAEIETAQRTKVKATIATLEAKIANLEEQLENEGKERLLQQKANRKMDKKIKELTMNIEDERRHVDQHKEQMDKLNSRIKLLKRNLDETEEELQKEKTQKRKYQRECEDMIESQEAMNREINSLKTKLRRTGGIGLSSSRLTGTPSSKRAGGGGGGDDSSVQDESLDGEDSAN
UniProt P17210: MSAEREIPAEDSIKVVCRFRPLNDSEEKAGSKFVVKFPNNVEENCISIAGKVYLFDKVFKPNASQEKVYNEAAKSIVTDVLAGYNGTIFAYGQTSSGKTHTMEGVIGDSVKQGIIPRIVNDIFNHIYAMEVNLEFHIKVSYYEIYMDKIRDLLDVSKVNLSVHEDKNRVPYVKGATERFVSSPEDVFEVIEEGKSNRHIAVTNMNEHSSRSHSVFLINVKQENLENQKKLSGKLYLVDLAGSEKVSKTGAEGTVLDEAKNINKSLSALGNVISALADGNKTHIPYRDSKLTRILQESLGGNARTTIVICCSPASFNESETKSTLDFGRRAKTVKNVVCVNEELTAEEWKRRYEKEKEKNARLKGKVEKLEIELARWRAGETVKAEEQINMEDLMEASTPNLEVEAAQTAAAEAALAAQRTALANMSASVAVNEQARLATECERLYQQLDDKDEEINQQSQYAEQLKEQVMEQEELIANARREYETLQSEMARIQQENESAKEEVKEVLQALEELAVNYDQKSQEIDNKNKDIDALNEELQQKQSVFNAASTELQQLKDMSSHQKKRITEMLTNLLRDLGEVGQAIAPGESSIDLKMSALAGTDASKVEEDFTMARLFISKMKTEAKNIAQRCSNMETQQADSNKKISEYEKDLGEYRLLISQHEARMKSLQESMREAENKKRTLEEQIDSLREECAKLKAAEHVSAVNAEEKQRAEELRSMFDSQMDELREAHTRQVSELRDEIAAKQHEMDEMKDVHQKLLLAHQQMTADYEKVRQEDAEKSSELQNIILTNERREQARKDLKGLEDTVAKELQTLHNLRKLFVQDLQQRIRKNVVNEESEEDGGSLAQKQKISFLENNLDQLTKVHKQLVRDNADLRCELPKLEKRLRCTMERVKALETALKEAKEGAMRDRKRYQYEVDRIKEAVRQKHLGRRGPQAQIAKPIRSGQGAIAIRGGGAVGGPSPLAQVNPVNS
UniProt P29742: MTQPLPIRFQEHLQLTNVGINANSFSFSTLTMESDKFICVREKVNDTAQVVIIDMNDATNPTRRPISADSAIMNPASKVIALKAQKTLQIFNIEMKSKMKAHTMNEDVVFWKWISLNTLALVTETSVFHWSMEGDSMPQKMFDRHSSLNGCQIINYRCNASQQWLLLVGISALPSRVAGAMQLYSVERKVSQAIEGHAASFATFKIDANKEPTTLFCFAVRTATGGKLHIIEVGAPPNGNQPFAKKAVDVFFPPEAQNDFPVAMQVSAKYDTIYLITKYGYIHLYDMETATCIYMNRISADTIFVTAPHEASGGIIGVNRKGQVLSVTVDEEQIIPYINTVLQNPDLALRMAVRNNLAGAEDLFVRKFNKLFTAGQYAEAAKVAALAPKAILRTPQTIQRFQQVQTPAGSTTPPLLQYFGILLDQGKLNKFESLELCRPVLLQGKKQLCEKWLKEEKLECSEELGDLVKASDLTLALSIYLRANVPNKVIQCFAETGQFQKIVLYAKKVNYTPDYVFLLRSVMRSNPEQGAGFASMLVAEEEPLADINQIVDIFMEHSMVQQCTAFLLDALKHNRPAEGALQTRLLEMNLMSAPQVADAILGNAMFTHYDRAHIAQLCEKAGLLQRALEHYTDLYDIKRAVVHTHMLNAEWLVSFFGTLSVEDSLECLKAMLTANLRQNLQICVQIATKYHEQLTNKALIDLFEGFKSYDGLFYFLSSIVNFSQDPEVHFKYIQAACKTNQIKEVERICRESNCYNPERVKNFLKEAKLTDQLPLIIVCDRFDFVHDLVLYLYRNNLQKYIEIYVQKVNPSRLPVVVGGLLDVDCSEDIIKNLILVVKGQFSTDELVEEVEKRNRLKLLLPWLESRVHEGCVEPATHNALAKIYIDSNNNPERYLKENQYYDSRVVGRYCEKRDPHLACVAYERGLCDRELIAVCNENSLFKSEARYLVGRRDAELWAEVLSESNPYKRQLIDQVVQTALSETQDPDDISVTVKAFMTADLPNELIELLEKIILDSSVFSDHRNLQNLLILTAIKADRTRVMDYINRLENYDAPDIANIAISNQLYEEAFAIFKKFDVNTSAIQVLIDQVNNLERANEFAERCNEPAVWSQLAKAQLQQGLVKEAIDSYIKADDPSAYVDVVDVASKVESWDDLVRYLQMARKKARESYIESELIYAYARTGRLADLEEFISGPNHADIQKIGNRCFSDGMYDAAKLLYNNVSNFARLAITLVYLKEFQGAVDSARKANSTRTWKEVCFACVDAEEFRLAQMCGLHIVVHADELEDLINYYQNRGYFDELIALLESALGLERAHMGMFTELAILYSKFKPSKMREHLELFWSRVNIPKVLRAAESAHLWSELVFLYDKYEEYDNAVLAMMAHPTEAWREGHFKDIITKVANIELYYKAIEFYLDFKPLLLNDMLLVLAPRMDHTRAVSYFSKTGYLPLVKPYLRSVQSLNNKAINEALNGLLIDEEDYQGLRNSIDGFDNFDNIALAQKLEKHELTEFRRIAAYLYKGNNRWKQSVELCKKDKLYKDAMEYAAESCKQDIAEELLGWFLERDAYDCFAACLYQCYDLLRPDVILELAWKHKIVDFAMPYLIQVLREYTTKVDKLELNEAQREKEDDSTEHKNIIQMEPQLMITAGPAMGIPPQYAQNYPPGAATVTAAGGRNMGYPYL

Molecular target: GFP-tagged Zip, over-expressed from UAS-GFP-zip (Drosophila) (UniProt Q99323)
Assay: affinity purification with mass spectrometry; anti-GFP immunoprecipitation from GFP-Zip over-expression lysate; in-solution trypsin digestion; high-resolution mass spectrometry (Orbitrap Eclipse Tribrid); sequence score > 40

binding | Molecule
binds | Kinesin heavy chain (from UniProt P17210 1-975)
binds | Ras-related protein Rab 3 (protein, UniProt P25228 1-220) MASGGDPKWQKDAADQNFDYMFKLLIIGNSSVGKTSFLFRYADDSFTSAFVSTVGIDFKVKTVFRHDKRVKLQIWDTAGQERYRTITTAYYRGAMGFILMYDVTNEDSFNSVQDWVTQIKTYSWDNAQVILVGNKCDMEDQRVISFERGRQLADQLGVEFFETSAKENVNVKAVFERLVDIICDKMSESLDADPTLVGGGQKGQRLTDQPQGTPNANCNC

Second part, the molecule before the results:

Molecule | binding
Clathrin heavy chain (from UniProt P29742 1-1678) | binds
AP-2 complex subunit alpha (protein, UniProt P91926 1-940) MAPVRGDGMRGLAVFISDIRNCKSKEAEVKRINKELANIRSKFKGDKTLDGYQKKKYVCKLLFIFLLGHDIDFGHMEAVNLLSSNKYSEKQIGYLFISVLVNTNSDLIRLIIQSIKNDLQSRNPVHVNLALQCIANIGSRDMAESFSNEIPKLLVSGDTMDVVKQSAALCLLRLFRSSPDIIPGGEWTSRIIHLLNDQHMGVVTAATSLIDALVKRNPDEYKGCVNLAVSRLSRIVTASYTDLQDYTYYFVPAPWLSVKLLRLLQNYNPVTEEAGVRARLNETLETILNKAQEPPKSKKVQHSNAKNAVLFEAINLIIHSDSEPNLLVRACNQLGQFLSNRETNLRYLALESMCHLATSEFSHEEVKKHQEVVILSMKMEKDVSVRQMAVDLLYAMCDRGNAEEIVQEMLNYLETADYSIREEMVLKVAILAEKYATDYTWYVDVILNLIRIAGDYVSEEVWYRVIQIVINREEVQGYAAKTVFEALQAPACHENMVKVGGYILGEFGNLIAGDSRSAPLVQFKLLHSKYHLCSPMTRALLLSTYIKFINLFPEIRTNIQDVFRQHSNLRSADAELQQRASEYLQLSIVASTDVLATVLEEMPSFPERESSILAVLKKKKPGRVPENEIRESKSPAPLTSAAQNNALVNNSHSKLNNSNANTDLLGLSTPPSNNIGSGSNSNSTLIDVLGDMYGSNSNNNSSAVYNTKKFLFKNNGVLFENEMLQIGVKSEFRQNLGRLGLFYGNKTQVPLTNFNPVLQWSAEDALKLNVQMKVVEPTLEAGAQIQQLLTAECIEDYADAPTIEISFRYNGTQQKFSIKLPLSVNKFFEPTEMNAESFFARWKNLSGEQQRSQKVFKAAQPLDLPGARNKLMGFGMQLLDQVDPNPDNMVCAGIIHTQSQQVGCLMRLEPNKQAQMFRLTVRASKETVTREICDLLTDQF | binds
Dynamin (protein, UniProt P27619 1-877) MDSLITIVNKLQDAFTSLGVHMQLDLPQIAVVGGQSAGKSSVLENFVGKDFLPRGSGIVTRRPLILQLINGVTEYGEFLHIKGKKFSSFDEIRKEIEDETDRVTGSNKGISNIPINLRVYSPHVLNLTLIDLPGLTKVAIGDQPVDIEQQIKQMIFQFIRKETCLILAVTPANTDLANSDALKLAKEVDPQGVRTIGVITKLDLMDEGTDARDILENKLLPLRRGYIGVVNRSQKDIEGRKDIHQALAAERKFFLSHPSYRHMADRLGTPYLQRVLNQQLTNHIRDTLPGLRDKLQKQMLTLEKEVEEFKHFQPGDASIKTKAMLQMIQQLQSDFERTIEGSGSALVNTNELSGGAKINRIFHERLRFEIVKMACDEKELRREISFAIRNIHGIRVGLFTPDMAFEAIVKRQIALLKEPVIKCVDLVVQELSVVVRMCTAKMSRYPRLREETERIITTHVRQREHSCKEQILLLIDFELAYMNTNHEDFIGFANAQNKSENANKTGTRQLGNQVIRKGHMVIQNLGIMKGGSRPYWFVLTSESISWYKDEDEKEKKFMLPLDGLKLRDIEQGFMSMSRRVTFALFSPDGRNVYKDYKQLELSCETVEDVESWKASFLRAGVYPEKQETQENGDESASEESSSDPQLERQVETIRNLVDSYMKIVTKTTRDMVPKAIMMLIINNAKDFINGELLAHLYASGDQAQMMEESAESATRREEMLRMYRACKDALQIIGDVSMATVSSPLPPPVKNDWLPSGLDNPRLSPPSPGGVRGKPGPPAQSSLGGRNPPLPPSTGRPAPAIPNRPGGGAPPLPGGRPGGSLPPPMLPSRVSGAVGGAIVQQSGANRYVPESMRGQVNQAVGQAAINELSNAFSSRFK | binds
